This assay deals with GST-Du1234 (Schistosoma japonicum; Staphylococcus aureus) (UniProt P14738). In words: 125I-N29 (8 x 10^4 cpm) on GST-Du1234 coated wells.

Sequences of proteins named here, by UniProt entry; tags and fusion partners are left off. Residues count along the entry.
UniProt P14738, residues 620-878: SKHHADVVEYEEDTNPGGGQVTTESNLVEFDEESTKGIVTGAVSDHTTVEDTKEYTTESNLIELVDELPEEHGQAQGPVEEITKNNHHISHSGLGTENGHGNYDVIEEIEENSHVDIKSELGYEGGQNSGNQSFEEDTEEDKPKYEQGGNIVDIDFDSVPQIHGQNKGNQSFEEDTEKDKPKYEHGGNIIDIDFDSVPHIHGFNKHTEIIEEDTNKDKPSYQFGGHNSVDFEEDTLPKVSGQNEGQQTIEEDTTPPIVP
UniProt P02751, residues 32-290: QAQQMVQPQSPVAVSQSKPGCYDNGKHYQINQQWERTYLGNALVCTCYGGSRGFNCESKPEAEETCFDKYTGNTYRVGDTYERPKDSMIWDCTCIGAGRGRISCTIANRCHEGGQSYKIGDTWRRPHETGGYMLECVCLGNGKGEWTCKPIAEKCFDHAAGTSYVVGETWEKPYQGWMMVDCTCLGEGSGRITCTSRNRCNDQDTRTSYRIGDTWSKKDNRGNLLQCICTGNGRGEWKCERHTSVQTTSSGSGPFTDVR

No constants are given. Whether binding was seen depends on the method and setting. Some results given as binding are weak or reduced against the parent protein; the word gives no strength.

For “N29, N-terminal fragment of fibronectin (from UniProt P02751 32-290) (ligand)”, the binding entry is given as “binds”.
